# The other results are listed elsewhere or left out.
# The chains behind the UniProt entries cited, without tags or fusion partners. Where a name states a change or a piece, a line headed by the entry shows the natural chain unless it says otherwise.
# UniProt Q6IPR1: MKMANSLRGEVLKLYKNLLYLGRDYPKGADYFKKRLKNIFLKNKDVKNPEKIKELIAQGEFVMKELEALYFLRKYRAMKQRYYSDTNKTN
# UniProt H0Y354, whole entry, looked up: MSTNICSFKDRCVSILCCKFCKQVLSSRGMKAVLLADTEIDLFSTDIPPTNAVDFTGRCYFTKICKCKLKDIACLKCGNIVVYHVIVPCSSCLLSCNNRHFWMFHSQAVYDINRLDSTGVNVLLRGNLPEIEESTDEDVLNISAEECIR
# UniProt Q9Y2C4: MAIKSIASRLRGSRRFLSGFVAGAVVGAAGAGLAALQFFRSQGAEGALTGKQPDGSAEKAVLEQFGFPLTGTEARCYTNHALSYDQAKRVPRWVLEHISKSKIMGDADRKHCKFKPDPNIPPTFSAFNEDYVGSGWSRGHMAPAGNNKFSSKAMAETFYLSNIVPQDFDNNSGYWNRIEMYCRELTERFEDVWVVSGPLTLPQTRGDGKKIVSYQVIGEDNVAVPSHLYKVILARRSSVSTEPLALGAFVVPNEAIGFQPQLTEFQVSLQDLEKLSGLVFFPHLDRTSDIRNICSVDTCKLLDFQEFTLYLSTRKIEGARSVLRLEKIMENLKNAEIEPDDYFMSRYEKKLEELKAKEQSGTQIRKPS
# UniProt O95718: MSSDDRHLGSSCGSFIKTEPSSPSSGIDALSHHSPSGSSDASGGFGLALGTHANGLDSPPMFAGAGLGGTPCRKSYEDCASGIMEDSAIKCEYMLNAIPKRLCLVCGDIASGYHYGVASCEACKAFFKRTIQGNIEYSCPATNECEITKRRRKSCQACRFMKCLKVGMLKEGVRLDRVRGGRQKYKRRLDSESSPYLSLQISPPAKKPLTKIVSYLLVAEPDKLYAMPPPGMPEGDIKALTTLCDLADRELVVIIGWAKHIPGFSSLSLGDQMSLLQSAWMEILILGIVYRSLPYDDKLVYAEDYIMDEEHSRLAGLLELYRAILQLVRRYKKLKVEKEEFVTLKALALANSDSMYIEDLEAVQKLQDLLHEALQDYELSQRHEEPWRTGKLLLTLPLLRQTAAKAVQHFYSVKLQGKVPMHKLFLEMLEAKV
# UniProt Q8IW50: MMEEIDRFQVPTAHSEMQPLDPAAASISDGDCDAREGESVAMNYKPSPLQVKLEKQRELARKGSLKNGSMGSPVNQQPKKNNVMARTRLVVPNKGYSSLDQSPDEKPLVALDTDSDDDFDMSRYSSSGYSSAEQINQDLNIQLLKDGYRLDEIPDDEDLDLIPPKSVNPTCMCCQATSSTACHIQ
# UniProt P11474: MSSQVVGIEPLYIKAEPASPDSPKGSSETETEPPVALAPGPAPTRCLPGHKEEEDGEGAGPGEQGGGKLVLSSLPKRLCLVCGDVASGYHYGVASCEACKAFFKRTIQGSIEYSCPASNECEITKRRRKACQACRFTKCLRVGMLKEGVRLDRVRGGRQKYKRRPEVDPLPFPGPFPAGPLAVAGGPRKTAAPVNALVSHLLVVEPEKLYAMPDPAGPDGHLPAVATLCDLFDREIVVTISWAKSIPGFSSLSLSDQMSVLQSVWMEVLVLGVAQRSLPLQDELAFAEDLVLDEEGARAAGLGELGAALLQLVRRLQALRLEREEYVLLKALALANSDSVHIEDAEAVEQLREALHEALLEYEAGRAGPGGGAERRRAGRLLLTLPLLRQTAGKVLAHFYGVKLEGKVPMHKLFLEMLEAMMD
# UniProt Q9Y421: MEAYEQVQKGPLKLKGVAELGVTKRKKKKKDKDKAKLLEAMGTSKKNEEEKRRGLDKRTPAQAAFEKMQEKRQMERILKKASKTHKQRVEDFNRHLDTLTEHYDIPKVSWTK
# EXOC3L2, A0A1C7CYX0, UniProt A0A1C7CYX0, whole entry, looked up: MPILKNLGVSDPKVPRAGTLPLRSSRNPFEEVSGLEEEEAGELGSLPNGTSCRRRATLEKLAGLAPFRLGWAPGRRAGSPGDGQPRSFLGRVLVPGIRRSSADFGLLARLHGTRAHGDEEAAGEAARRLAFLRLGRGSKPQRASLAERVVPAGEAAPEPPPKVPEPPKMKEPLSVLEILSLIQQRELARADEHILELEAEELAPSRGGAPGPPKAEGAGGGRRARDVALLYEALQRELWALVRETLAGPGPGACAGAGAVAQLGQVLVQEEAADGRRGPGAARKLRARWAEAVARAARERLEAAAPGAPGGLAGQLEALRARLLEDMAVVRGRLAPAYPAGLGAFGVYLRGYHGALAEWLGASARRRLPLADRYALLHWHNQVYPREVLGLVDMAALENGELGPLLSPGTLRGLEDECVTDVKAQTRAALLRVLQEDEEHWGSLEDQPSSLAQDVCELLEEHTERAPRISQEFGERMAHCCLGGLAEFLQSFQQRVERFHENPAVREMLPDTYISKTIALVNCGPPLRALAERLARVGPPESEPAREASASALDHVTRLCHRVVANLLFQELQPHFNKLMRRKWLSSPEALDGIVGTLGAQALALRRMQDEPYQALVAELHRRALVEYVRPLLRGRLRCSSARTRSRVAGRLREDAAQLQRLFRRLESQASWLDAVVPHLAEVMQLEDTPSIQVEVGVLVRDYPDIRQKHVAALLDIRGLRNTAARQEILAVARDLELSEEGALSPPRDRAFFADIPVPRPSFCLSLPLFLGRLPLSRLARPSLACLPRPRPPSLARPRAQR
# UniProt Q969W3: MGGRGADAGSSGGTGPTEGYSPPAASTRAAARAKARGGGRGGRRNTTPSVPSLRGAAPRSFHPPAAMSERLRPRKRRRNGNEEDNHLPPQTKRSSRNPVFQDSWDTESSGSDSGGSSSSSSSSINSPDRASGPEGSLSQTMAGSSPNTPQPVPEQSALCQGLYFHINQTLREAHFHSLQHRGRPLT
# UniProt P41161: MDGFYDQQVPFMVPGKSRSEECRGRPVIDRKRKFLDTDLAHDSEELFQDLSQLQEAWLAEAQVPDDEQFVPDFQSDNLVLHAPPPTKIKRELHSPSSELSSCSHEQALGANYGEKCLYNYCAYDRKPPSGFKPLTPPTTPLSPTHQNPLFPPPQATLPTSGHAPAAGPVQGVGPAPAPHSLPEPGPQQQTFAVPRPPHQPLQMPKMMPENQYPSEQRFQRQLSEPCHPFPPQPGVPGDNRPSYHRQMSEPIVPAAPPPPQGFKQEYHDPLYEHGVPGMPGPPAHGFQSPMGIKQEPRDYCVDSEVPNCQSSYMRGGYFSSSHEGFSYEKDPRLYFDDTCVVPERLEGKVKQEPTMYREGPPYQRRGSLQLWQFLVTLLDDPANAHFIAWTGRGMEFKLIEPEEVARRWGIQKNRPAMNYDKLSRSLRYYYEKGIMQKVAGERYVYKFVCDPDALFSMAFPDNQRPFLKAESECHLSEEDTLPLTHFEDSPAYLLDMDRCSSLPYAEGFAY
# UniProt Q8N612: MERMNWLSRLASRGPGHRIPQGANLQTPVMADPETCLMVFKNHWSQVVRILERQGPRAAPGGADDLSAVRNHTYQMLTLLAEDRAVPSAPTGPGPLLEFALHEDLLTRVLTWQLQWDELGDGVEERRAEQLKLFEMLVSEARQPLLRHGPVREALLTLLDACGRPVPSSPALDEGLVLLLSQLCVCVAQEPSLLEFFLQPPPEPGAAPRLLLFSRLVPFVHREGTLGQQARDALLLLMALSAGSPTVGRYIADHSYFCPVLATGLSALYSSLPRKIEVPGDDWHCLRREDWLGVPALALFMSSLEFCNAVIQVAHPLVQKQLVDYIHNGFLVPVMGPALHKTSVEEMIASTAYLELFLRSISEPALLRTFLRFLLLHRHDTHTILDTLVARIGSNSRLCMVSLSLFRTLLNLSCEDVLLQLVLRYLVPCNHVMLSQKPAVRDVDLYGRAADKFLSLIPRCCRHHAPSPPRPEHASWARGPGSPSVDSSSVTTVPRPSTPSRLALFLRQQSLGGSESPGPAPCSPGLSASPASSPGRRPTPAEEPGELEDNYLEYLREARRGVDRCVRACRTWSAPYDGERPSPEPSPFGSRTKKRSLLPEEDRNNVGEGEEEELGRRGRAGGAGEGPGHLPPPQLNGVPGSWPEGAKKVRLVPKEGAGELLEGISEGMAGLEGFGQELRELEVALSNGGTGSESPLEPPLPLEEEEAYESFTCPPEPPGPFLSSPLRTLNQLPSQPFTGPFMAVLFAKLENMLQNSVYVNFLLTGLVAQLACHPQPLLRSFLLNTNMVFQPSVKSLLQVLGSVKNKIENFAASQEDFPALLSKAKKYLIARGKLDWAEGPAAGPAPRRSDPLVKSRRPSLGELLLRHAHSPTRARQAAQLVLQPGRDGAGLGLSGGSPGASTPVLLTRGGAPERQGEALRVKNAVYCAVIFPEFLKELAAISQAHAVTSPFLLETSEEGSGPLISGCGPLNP
# UniProt Q8IXR5: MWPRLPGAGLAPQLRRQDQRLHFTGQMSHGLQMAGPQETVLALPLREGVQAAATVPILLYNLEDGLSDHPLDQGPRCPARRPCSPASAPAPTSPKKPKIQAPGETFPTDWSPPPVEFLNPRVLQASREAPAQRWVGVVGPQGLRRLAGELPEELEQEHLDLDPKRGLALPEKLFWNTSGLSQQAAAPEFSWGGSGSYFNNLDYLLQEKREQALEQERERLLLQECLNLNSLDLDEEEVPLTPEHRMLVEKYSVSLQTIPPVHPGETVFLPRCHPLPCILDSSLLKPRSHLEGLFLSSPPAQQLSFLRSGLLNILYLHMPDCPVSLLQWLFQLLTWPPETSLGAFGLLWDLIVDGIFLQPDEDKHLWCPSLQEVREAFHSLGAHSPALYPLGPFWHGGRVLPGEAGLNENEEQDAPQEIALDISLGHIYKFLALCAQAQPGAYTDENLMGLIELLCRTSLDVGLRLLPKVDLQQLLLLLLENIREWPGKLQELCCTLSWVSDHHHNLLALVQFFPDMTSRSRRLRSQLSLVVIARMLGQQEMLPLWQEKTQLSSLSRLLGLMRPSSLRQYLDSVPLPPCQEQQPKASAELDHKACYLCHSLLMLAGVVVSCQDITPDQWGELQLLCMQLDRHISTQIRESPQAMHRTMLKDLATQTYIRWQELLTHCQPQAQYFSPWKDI
# UniProt Q9NVM1: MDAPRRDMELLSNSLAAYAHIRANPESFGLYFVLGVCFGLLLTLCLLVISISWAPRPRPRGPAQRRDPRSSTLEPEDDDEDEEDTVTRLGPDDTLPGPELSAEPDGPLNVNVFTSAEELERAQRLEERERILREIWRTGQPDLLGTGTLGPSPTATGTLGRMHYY
# UniProt Q8WU58: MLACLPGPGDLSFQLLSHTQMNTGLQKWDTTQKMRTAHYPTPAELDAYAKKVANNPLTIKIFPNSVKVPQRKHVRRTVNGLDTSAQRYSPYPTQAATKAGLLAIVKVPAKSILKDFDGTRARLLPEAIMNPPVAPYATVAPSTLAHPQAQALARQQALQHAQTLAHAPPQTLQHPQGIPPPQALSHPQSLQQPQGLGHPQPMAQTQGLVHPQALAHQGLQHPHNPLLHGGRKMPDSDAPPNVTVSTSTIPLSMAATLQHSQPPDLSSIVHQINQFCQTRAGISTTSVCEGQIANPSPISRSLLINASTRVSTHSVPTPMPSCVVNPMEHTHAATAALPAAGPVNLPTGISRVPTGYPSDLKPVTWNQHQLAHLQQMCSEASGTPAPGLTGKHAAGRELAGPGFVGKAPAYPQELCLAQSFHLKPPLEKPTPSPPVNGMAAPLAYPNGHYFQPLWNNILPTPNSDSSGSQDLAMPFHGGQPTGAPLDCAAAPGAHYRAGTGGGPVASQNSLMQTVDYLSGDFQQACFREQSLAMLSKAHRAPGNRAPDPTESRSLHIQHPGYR
# Experiments:
# Assay in all cases: log2 fold change, soluble protein after heating vs DMSO (PISA); higher = thermal stabilisation; K562 lysate, 10 uM; active = over 0.2 and 3.5 SD of the protein, either way, in both replicates (recomputed)
# [1] = compound: CN1CC[C@H](c2c(O)cc(O)c3c(=O)cc(-c4ccccc4Cl)oc23)[C@H](O)C1 [alvocidib]
# Method in brief: (§1)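 K562 pellets were dounce-homogenised in PBS pH 7.4 containing 1 mM MgCl2, and the crude extract, at 1 mg/mL protein, was exposed to 10 μM compound for 30 min. Aliquots were heated for 3 min across 48°C-58°C, pooled, brought to 0.5% NP-40 at 4°C and spun at 21,000xg for 90 min, with the supernatant taken as soluble protein. TMTpro 16plex LC-MS/MS with equalised channel sums quantified that protein. Values are log-two fold changes in thermal stability relative to solvent controls, taken from duplicates.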
# [2] = compound: CN1CCc2c(c3ccccc3n2Cc2ccc(C(=O)NO)cc2)C1 [Tubastatin A]
# Method in brief: as §1
# [3] = compound: CNC(=O)C1=CC=CC=C1NC2=NC(=NC=C2Cl)NC3=C(C=C(C=C3)N4CCOCC4)OC
# Method in brief: as §1
# [4] = compound: CNC(=O)c1ccc(Nc2ncc(C(F)(F)F)c(NCc3nccnc3N(C)S(C)(=O)=O)n2)cc1 [defactinib]
# Method in brief: as §1
# [5] = compound: CNc1nc(-c2ccc3c(N)n[nH]c3c2)cc(N2C[C@@H](C(=O)NC3CCCCC3)CC[C@H]2C)n1
# Method in brief: as §1
# [6] = compound: COc1cc(Nc2ncc3c(n2)-c2ccc(Cl)cc2C(c2c(F)cccc2OC)=NC3)ccc1C(=O)O [alisertib]
# Method in brief: as §1
# [7] = compound: COc1cc2nc(-c3cc(F)ccc3O)nc(N[C@@H]3CNC[C@H]3C(C)(C)O)c2cc1OC
# Method in brief: as §1
# [8] = compound: COc1cc2ncnc(Nc3ccc(F)c(Cl)c3)c2cc1OCCCN1CCOCC1 [gefitinib]
# Method in brief: as §1
# [9] = compound: CS(=O)(=O)CCNCc1ccc(-c2ccc3ncnc(Nc4ccc(OCc5cccc(F)c5)c(Cl)c4)c3c2)o1 [lapatinib]
# Method in brief: as §1
# [10] = compound: CS(=O)(=O)N1CCN(Cc2cc3nc(-c4cccc5[nH]ncc45)nc(N4CCOCC4)c3s2)CC1 [pictilisib]
# Method in brief: as §1
# [11] = compound: C[C@@H](Oc1cc(-c2cnn(C3CCNCC3)c2)cnc1N)c1c(Cl)ccc(F)c1Cl [crizotinib]
# Method in brief: as §1
# [12] = compound: C[C@H](C1=CC=C(C=C1)C(=O)NC2=C3C=CNC3=NC=C2)N
# Method in brief: as §1
# [13] = compound: C[C@H](Nc1ncnc2nc[nH]c12)c1cc2cccc(Cl)c2c(=O)n1-c1ccccc1 [duvelisib]
# Method in brief: as §1
# [14] = compound: Cc1cc(Nc2cc(CN3CCOCC3)c3nc(C)c(Cc4ccc(Cl)cc4F)n3n2)n[nH]1 [gandotinib]
# Method in brief: as §1
# [15] = compound: Cc1ccc(-n2nc(C(C)(C)C)cc2NC(=O)Nc2ccc(OCCN3CCOCC3)c3ccccc23)cc1 [doramapimod]
# Method in brief: as §1
# [16] = compound: Cc1ccc(NC(=O)c2ccc(CN3CC[C@H](N(C)C)C3)c(C(F)(F)F)c2)cc1Nc1nccc(-c2cncnc2)n1 [bafetinib]
# Method in brief: as §1
# [17] = compound: Cc1cccc(CC(=O)N2CCc3c2ccc(-c2cn(C)c4ncnc(N)c24)c3F)n1
# Method in brief: as §1
# [18] = compound: COC(=O)N[C@@H](C)CNc1nccc(-c2cn(C(C)C)nc2-c2cc(Cl)cc(NS(C)(=O)=O)c2F)n1 [encorafenib]
# Method in brief: as §1
# [19] = compound: COC(=O)[C@H](CCSC)NC(=O)C1=C(C=C(C=C1)NC[C@H](CS)N)C2=CC=CC=C2
# Method in brief: as §1
# [20] = compound: Cc1cc(Nc2cc(N3CCN(C)CC3)nc(Sc3ccc(NC(=O)C4CC4)cc3)n2)n[nH]1 [tozasertib]
# Method in brief: as §1
Target,log2 fold change [1],log2 fold change [2],log2 fold change [3],log2 fold change [4],log2 fold change [5],log2 fold change [6],log2 fold change [7],log2 fold change [8],log2 fold change [9],log2 fold change [10],log2 fold change [11],log2 fold change [12],log2 fold change [13],log2 fold change [14],log2 fold change [15],log2 fold change [16],log2 fold change [17],log2 fold change [18],log2 fold change [19],log2 fold change [20]
ETFRF1 (UniProt Q6IPR1),inactive: 0.025,inactive: 0.032,inactive: -0.006,inactive: -0.071,inactive: 0.021,inactive: 0.003,inactive: -0.042,inactive: -0.009,inactive: 0.021,inactive: -0.01,inactive: -0.004,inactive: 0.112,inactive: -0.004,inactive: -0.087,inactive: -0.057,inactive: -0.039,inactive: -0.039,–,–,–
FAM234A (UniProt Q9H0X4),inactive: -0.024,inactive: 0.083,inactive: 0.025,inactive: -0.038,inactive: -0.001,inactive: -0.018,inactive: -0.014,inactive: -0.001,inactive: -0.108,inactive: -0.023,inactive: 0.023,inactive: -0.063,inactive: 0.007,inactive: 0.039,inactive: -0.041,inactive: -0.02,inactive: 0.1,inactive: 0.013,inactive: -0.04,inactive: -0.021
FAM72C (UniProt H0Y354),inactive: -0.086,inactive: -0.158,–,inactive: 0.16,–,–,–,–,–,–,–,inactive: 0.148,–,inactive: 0.182,–,–,inactive: 0.003,–,–,–
FAM160B2 (UniProt Q86V87),inactive: -0.222,inactive: -0.088,inactive: 0.12,inactive: 0.216,–,inactive: 0.04,–,inactive: -0.022,–,–,inactive: -0.292,inactive: -0.245,–,inactive: -0.168,inactive: 0.079,–,inactive: 0.104,inactive: 0.158,inactive: -0.236,inactive: 0.042
ESPL1 (UniProt Q14674),inactive: 0.044,inactive: -0.023,inactive: 0.129,inactive: -0.188,inactive: 0.053,inactive: 0.004,inactive: -0.233,inactive: -0.009,inactive: 0.053,inactive: 0.07,inactive: -0.015,inactive: 0.027,inactive: -0.011,inactive: 0.026,inactive: -0.044,inactive: -0.077,inactive: 0.057,inactive: 0.101,inactive: -0.013,inactive: 0.024
EXOG (UniProt Q9Y2C4),inactive: -0.094,inactive: -0.059,inactive: -0.019,inactive: 0.133,inactive: -0.012,inactive: 0.091,inactive: -0.099,inactive: -0.018,inactive: 0.007,inactive: 0.038,–,inactive: -0.386,inactive: 0.024,inactive: 0.09,–,inactive: -0.058,inactive: 0.014,inactive: 0.206,inactive: -0.04,inactive: 0.02
ESRRB isoform 1 (UniProt O95718),inactive: 0.233,inactive: -0.269,inactive: -0.011,–,–,–,–,–,–,inactive: 0.05,–,inactive: 0.438,–,inactive: -0.437,–,inactive: 0.028,inactive: -0.308,–,–,–
FAM219A (UniProt Q8IW50),inactive: -0.017,inactive: 0.063,inactive: -0.025,–,inactive: -0.152,–,inactive: 0.058,–,inactive: 0.004,inactive: 0.04,inactive: 0.242,inactive: -0.088,inactive: 0.012,inactive: 0.058,inactive: -0.235,inactive: -0.084,inactive: 0.067,inactive: -0.018,inactive: -0.118,inactive: -0.112
ESRRA (UniProt P11474),inactive: 0.167,inactive: -0.169,inactive: 0.033,inactive: -0.086,inactive: -0.04,inactive: -0.045,inactive: -0.029,inactive: 0.07,inactive: 0.026,inactive: -0.049,inactive: -0.025,active: 0.444,inactive: 0.088,inactive: -0.115,inactive: -0.028,inactive: 0.052,inactive: -0.149,inactive: 0.048,inactive: -0.072,inactive: 0.088
FAM32A (UniProt Q9Y421),inactive: -0.05,inactive: 0.149,inactive: -0.029,inactive: -0.018,inactive: 0.043,–,–,–,–,inactive: 0.021,inactive: 0.011,inactive: -0.049,inactive: -0.054,inactive: 0.012,inactive: 0.078,inactive: -0.006,inactive: 0.042,inactive: 0.002,inactive: -0.005,inactive: -0.032
FAM20B (UniProt O75063),inactive: 0.026,inactive: 0.04,inactive: -0.025,inactive: -0.037,inactive: -0.018,inactive: 0,inactive: -0.017,inactive: 0.019,inactive: 0.033,inactive: -0.019,inactive: -0.027,inactive: -0.026,inactive: 0.043,inactive: -0.075,inactive: -0.012,inactive: -0.056,inactive: -0.017,inactive: 0.017,inactive: -0.03,inactive: 0.01
FAH isoform 2 (UniProt P16930),inactive: -0.189,inactive: 0.188,–,inactive: -0.184,inactive: 0.123,inactive: 0.219,inactive: -0.027,inactive: -0.041,inactive: -0.211,inactive: -0.036,inactive: -0.267,inactive: -0.469,inactive: -0.144,inactive: 0.215,inactive: 0.208,inactive: -0.248,inactive: 0.325,inactive: 0.048,inactive: 0,inactive: 0.036
FAM171A2 (UniProt A8MVW0),–,–,inactive: -0.089,–,–,–,–,–,–,–,–,–,–,–,–,–,–,–,–,–
FAM3A (UniProt Q9BU27),–,inactive: 0.016,–,–,inactive: 0.49,inactive: 0.108,–,inactive: 0.049,–,–,–,–,inactive: -0.152,–,–,–,–,–,–,–
"EXOC3L2, A0A1C7CYX0",inactive: -0.045,–,inactive: 0.019,–,inactive: 0.007,–,–,–,–,–,inactive: 0.05,inactive: 0.125,inactive: 0.11,inactive: -0.071,inactive: 0.007,–,inactive: 0.08,inactive: 0.033,inactive: -0.028,inactive: 0.043
ERV3-1 (UniProt Q14264),–,–,inactive: 0.088,–,inactive: -0.118,–,–,–,–,–,inactive: 0.156,–,inactive: -0.001,–,inactive: -0.041,–,–,inactive: -0.057,inactive: -0.09,inactive: 0.115
"FAM120A, A0A494C0Y9",–,inactive: -0.171,inactive: -0.129,–,inactive: 0.069,–,–,–,–,–,–,–,inactive: 0.11,–,–,–,–,–,–,–
FAM104A isoform 2 (UniProt Q969W3),–,inactive: 0.06,–,–,inactive: -0.11,–,–,–,–,inactive: -0.066,–,–,inactive: 0.022,–,–,inactive: -0.047,–,–,–,–
ETV5 isoform 2 (UniProt P41161),inactive: -0.092,–,–,inactive: 0.08,–,–,–,–,–,–,–,inactive: -0.077,–,inactive: -0.02,–,–,inactive: -0.031,inactive: 0.054,inactive: -0.095,inactive: -0.01
FAM160A2 isoform 2 (UniProt Q8N612),inactive: 0,–,inactive: 0.214,inactive: -0.024,inactive: -0.172,inactive: -0.03,–,inactive: -0.026,–,inactive: -0.114,inactive: -0.033,inactive: -0.152,inactive: 0.131,inactive: 0.095,inactive: 0.038,inactive: -0.278,inactive: -0.07,inactive: 0.018,inactive: -0.054,inactive: 0.111
FAM178B (UniProt Q8IXR5),–,–,–,–,–,–,–,–,–,–,inactive: 0.022,–,–,–,inactive: -0.003,–,–,inactive: 0.058,inactive: -0.163,inactive: 0.053
EVA1B (UniProt Q9NVM1),–,inactive: 0.388,inactive: -0.11,–,inactive: 0.185,–,–,–,–,–,inactive: -0.023,–,inactive: 0.068,–,inactive: 0.01,–,–,–,–,–
ERN1 (UniProt O75460),–,–,inactive: 0.271,–,–,–,–,–,–,–,–,–,–,–,–,–,–,inactive: 0.049,inactive: -0.074,inactive: 0.004
F10 (UniProt P00742),–,–,–,–,–,–,–,–,–,inactive: -0.049,–,–,–,–,–,inactive: -0.146,–,–,–,–
FAM102B (UniProt Q5T8I3),inactive: 0.067,–,inactive: -0.461,inactive: 0.064,–,–,inactive: 0.03,–,inactive: -0.042,inactive: -0.031,inactive: -0.184,inactive: 0.088,–,inactive: -0.042,inactive: 0.096,inactive: 0.021,inactive: -0.016,inactive: -0.054,inactive: 0.025,inactive: 0.051
FAM222B (UniProt Q8WU58),–,inactive: 0.026,inactive: 0.007,inactive: 0.064,inactive: 0.076,inactive: 0.01,–,inactive: -0.052,–,inactive: -0.104,inactive: 0.052,–,inactive: -0.02,–,inactive: 0.061,inactive: 0.044,–,inactive: -0.156,inactive: -0.007,inactive: -0.115

# Taken from above:
# For log2 fold change [17], FAM234A (UniProt Q9H0X4) is entered as inactive: 0.1
# For log2 fold change [16], F10 (UniProt P00742) is entered as inactive: -0.146

# — the supplement of paper PMC10849652
